Experiment [1] concerns the target microtubules assembled from purified tubulin. Nature of the experiment: condition: only extracts of cells treated with 100 ng/mL nocodazole for 16 hr; co-sedimentation; as a5, extracts of HeLa cells treated with 100 ng/mL nocodazole for 16 hr only; only the target purified.
For experiment [2] the target is unchanged. Nature of the experiment: co-sedimentation; as a5, extracts of HeLa cells treated with 100 ng/mL nocodazole for 16 hr only; only the target purified.
The target is the same in experiment [3]. Nature of the experiment: co-sedimentation; microtubule-associated protein spin-down kit; 10 ug Taxol-stabilized microtubules with 30-60 ug cytosolic extract of HeLa cells, 50 uL, 20 min at RT; pelleted at 100,000 x g through a 40% glycerol cushion; cells non-treated, nocodazole-treated or released from a double thymidine block; only the target purified.

These are yes or no findings as the source states them, for the method shown. In cells and extracts the contact can be indirect. For some of these results: A result given as binding can be weak or reduced; the word gives no strength.

Experimental findings from article PMC8215223 are described below.

B1: HOOK3 (endogenous) (protein, UniProt Q86VS8 1-718)
chain: MFSVESLERAELCESLLTWIQTFNVDAPCQTVEDLTNGVVMAQVLQKIDPAYFDENWLNRIKTEVGDNWRLKISNLKKILKGILDYNHEILGQQINDFTLPDVNLIGEHSDAAELGRMLQLILGCAVNCEQKQEYIQAIMMMEESVQHVVMTAIQELMSKESPVSAGNDAYVDLDRQLKKTTEELNEALSAKEEIAQRCHELDMQVAALQEEKSSLLAENQVLMERLNQSDSIEDPNSPAGRRHLQLQTQLEQLQEETFRLEAAKDDYRIRCEELEKEISELRQQNDELTTLADEAQSLKDEIDVLRHSSDKVSKLEGQVESYKKKLEDLGDLRRQVKLLEEKNTMYMQNTVSLEEELRKANAARSQLETYKRQVVELQNRLSEESKKADKLDFEYKRLKEKVDSLQKEKDRLRTERDSLKETIEELRCVQAQEGQLTTQGLMPLGSQESSDSLAAEIVTPEIREKLIRLQHENKMLKLNQEGSDNEKIALLQSLLDDANLRKNELETENRLVNQRLLEVQSQVEELQKSLQDQGSKAEDSVLLKKKLEEHLEKLHEANNELQKKRAIIEDLEPRFNNSSLKIEELQEALRKKEEEMKQMEERYKKYLEKAKSVIRTLDPKQNQGAAPEIQALKNQLQERDRLFHSLEKEYEKTKSQREMEEKYIVSAWYNMGMTLHKKAAEDRLASTGSGQSFLARQRQATSSRRSYPGHVQPATAR
With B1, the binding entry in experiment [1] was “no binding”; in experiment [2] it was “binds weakly”; in experiment [3], “binds”.

B2: CLASP2 (endogenous) (protein, UniProt O75122 1-1294)
chain: MAMGDDKSFDDEESVDGNRPSSAASAFKVPAPKTSGNPANSARKPGSAGGPKVGGASKEGGAGAVDEDDFIKAFTDVPSIQIYSSRELEETLNKIREILSDDKHDWDQRANALKKIRSLLVAGAAQYDCFFQHLRLLDGALKLSAKDLRSQVVREACITVAHLSTVLGNKFDHGAEAIVPTLFNLVPNSAKVMATSGCAAIRFIIRHTHVPRLIPLITSNCTSKSVPVRRRSFEFLDLLLQEWQTHSLERHAAVLVETIKKGIHDADAEARVEARKTYMGLRNHFPGEAETLYNSLEPSYQKSLQTYLKSSGSVASLPQSDRSSSSSQESLNRPFSSKWSTANPSTVAGRVSAGSSKASSLPGSLQRSRSDIDVNAAAGAKAHHAAGQSVRSGRLGAGALNAGSYASLEDTSDKLDGTASEDGRVRAKLSAPLAGMGNAKADSRGRSRTKMVSQSQPGSRSGSPGRVLTTTALSTVSSGVQRVLVNSASAQKRSKIPRSQGCSREASPSRLSVARSSRIPRPSVSQGCSREASRESSRDTSPVRSFQPLASRHHSRSTGALYAPEVYGASGPGYGISQSSRLSSSVSAMRVLNTGSDVEEAVADALKKPARRRYESYGMHSDDDANSDASSACSERSYSSRNGSIPTYMRQTEDVAEVLNRCASSNWSERKEGLLGLQNLLKNQRTLSRVELKRLCEIFTRMFADPHGKRVFSMFLETLVDFIQVHKDDLQDWLFVLLTQLLKKMGADLLGSVQAKVQKALDVTRESFPNDLQFNILMRFTVDQTQTPSLKVKVAILKYIETLAKQMDPGDFINSSETRLAVSRVITWTTEPKSSDVRKAAQSVLISLFELNTPEFTMLLGALPKTFQDGATKLLHNHLRNTGNGTQSSMGSPLTRPTPRSPANWSSPLTSPTNTSQNTLSPSAFDYDTENMNSEDIYSSLRGVTEAIQNFSFRSQEDMNEPLKRDSKKDDGDSMCGGPGMSDPRAGGDATDSSQTALDNKASLLHSMPTHSSPRSRDYNPYNYSDSISPFNKSALKEAMFDDDADQFPDDLSLDHSDLVAELLKELSNHNERVEERKIALYELMKLTQEESFSVWDEHFKTILLLLLETLGDKEPTIRALALKVLREILRHQPARFKNYAELTVMKTLEAHKDPHKEVVRSAEEAASVLATSISPEQCIKVLCPIIQTADYPINLAAIKMQTKVIERVSKETLNLLLPEIMPGLIQGYDNSESSVRKACVFCLVAVHAVIGDELKPHLSQLTGSKMKLLNLYIKRAQTGSGGADPTTDVSGQS
For the molecule B2, the binding entry in experiment [3] is “binds”.
